Data from patent publication CN1618812A.
No constants are given. Whether binding was seen depends on the method and setting. In cells and extracts the contact can be indirect. Some entries that bind do so weakly or less than the wild type. Sequences can lack the tags named with a protein.

Target: T1, 人CD20蛋白 (human) (UniProt P11836)
T1 sequence (looked up): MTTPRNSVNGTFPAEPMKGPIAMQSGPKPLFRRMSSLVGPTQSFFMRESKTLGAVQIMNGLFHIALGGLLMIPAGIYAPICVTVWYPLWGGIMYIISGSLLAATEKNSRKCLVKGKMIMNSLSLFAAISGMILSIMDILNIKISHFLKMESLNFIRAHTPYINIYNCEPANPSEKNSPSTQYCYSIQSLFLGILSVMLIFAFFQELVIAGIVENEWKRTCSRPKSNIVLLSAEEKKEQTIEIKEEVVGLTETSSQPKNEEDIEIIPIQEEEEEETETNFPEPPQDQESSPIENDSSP
Experiment: in vitro precipitation (pull-down) of human CD20 protein by the GST-scFv fusion

B1: GST融合抗CD20单链抗体 (scFv)
scFv: QESGPGLVKPSETLSLTCVVSGGSISSSNWWSWVRQPPGKGLEWIGEIYHSGSPNYNPSLKSRVTISVDKSKNQFSLKLSSVTAADTAVYYCARIIRIHRTGWGQGTLVTVSSGGGGSGGGGSGGSALEIVMTQTPLSSPVTLGQPASISFRSSQSLVHSDGNTYLNWFQQRPGQSPRRLIYKVSNWDSGVPDRFSGSGSGTDFTLKISGAEAEDVGVYYCMQGTHWLTFGQGTKVEIKR
binding: binds
